Reference: the supplement of paper PMC6411743
± gives the standard deviation of the averaged measurements. The entries are a selection whose mix differs from that of the whole data set. Small differences around the control level are noise.

Chains of the proteins cited; added tags and fusions are not shown. Lines headed by an entry give the natural chain unless they say otherwise; changes in a name come on top.
UniProt P54252: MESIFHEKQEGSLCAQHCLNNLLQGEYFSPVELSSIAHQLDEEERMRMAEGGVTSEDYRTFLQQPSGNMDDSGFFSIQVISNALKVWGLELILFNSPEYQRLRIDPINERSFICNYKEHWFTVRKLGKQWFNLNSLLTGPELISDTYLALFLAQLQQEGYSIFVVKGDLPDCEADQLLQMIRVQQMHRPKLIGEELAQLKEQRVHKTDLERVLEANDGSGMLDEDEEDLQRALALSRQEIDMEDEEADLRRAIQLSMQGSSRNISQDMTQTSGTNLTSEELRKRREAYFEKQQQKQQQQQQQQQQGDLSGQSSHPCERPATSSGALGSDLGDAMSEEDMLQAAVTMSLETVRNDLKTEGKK
UniProt P46087: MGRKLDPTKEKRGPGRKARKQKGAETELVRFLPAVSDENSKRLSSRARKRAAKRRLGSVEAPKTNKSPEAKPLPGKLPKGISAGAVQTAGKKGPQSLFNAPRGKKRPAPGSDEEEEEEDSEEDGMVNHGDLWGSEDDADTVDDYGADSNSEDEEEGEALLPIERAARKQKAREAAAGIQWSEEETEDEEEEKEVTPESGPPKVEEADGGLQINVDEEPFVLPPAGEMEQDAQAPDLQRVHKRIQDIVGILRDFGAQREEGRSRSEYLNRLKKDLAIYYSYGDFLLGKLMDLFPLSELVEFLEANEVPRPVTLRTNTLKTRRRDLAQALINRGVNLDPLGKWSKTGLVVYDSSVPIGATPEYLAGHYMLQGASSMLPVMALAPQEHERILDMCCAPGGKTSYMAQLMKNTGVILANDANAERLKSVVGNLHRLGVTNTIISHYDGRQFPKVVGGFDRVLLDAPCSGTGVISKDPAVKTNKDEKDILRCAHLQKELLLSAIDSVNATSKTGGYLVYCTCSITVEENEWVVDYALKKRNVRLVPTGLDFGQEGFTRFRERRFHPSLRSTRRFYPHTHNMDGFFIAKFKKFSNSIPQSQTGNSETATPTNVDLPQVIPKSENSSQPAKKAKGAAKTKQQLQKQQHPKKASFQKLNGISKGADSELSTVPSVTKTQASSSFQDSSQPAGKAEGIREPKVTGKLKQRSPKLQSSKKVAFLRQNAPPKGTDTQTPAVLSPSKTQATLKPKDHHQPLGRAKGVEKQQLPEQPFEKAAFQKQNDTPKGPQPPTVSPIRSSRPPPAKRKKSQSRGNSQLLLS
UniProt Q8IXJ6: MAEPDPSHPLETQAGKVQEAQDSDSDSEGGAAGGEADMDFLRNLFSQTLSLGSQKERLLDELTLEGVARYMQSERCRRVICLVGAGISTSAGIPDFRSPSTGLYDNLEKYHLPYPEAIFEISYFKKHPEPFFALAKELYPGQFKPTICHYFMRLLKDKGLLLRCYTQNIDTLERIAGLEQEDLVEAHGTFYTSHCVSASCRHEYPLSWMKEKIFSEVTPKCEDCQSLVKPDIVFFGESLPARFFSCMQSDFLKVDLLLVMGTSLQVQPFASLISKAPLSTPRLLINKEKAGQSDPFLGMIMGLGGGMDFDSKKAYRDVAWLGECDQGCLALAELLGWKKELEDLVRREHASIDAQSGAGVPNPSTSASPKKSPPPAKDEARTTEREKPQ
UniProt P62070: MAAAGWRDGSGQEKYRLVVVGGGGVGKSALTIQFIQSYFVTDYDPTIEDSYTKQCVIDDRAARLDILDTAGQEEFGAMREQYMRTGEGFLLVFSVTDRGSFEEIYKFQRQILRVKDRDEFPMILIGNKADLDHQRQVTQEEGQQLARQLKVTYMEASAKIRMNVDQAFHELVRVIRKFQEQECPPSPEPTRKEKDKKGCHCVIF
UniProt Q9H299: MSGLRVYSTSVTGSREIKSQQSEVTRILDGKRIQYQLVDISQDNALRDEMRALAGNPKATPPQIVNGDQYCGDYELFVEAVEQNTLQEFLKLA
UniProt Q9ULH1: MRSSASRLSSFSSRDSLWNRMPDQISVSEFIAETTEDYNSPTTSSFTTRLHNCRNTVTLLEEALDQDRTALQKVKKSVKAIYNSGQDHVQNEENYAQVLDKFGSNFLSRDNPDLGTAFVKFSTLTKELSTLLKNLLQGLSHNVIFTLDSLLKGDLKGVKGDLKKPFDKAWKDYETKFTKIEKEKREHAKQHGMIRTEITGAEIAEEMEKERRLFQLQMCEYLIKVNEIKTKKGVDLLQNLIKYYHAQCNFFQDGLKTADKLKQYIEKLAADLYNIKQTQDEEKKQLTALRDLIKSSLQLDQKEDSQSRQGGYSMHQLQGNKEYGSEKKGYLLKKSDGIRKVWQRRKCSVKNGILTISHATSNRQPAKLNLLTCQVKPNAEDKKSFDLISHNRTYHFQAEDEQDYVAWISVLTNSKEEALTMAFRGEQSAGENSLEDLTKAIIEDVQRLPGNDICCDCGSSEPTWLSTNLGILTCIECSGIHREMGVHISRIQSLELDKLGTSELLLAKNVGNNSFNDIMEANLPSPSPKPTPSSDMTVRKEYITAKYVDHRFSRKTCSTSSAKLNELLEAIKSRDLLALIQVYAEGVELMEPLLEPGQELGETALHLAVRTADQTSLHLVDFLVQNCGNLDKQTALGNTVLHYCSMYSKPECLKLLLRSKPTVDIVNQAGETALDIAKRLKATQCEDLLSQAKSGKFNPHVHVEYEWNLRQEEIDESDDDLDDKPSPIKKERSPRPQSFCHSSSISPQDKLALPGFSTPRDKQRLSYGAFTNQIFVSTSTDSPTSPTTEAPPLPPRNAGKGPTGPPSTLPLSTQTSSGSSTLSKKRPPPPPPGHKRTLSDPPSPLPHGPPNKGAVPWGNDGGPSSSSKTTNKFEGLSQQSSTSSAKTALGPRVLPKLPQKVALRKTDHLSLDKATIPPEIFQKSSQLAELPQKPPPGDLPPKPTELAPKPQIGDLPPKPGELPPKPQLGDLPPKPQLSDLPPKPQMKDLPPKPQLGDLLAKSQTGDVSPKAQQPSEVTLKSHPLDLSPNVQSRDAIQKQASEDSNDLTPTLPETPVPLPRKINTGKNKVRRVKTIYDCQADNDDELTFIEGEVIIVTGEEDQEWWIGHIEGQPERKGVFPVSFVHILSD
UniProt Q9UNQ2: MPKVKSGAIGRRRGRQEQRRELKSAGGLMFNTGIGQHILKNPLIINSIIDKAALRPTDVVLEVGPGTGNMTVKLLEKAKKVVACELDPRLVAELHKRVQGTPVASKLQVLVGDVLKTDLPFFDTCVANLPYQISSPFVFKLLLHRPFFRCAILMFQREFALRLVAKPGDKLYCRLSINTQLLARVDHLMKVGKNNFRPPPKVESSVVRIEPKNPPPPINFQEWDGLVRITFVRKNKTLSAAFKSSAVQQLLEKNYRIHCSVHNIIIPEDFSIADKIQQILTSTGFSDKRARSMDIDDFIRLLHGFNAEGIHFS
UniProt Q8IZQ5, whole entry, looked up: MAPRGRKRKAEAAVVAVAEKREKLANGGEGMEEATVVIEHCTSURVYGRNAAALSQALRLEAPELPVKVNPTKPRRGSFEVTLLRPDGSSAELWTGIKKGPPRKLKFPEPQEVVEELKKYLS
UniProt P04179: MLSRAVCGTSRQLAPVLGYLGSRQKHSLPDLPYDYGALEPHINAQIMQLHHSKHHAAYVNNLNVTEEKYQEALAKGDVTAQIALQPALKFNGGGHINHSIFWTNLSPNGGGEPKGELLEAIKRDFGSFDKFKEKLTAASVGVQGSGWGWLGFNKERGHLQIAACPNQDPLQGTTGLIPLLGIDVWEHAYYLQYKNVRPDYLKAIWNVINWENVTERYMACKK
UniProt Q6PIU2: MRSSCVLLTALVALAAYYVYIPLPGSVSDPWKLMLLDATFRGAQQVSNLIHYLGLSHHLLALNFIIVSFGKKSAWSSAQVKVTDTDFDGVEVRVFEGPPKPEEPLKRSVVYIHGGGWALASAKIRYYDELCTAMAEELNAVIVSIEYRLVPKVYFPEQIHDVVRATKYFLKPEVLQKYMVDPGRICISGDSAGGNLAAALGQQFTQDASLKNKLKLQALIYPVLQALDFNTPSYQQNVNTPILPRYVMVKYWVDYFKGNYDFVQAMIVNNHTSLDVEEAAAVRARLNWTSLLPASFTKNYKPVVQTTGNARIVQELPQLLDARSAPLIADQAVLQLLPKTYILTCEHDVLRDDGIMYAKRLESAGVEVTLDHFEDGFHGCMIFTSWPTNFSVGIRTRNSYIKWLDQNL
UniProt Q9NP79: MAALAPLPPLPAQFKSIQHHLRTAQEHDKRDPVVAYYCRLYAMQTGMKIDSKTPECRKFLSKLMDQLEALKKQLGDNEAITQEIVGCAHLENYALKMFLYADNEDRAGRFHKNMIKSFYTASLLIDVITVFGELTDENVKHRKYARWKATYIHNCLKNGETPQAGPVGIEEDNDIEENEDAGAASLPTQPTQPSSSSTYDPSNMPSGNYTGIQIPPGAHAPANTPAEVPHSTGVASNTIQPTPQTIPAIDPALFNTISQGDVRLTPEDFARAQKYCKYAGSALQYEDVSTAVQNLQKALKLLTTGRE
UniProt O94761: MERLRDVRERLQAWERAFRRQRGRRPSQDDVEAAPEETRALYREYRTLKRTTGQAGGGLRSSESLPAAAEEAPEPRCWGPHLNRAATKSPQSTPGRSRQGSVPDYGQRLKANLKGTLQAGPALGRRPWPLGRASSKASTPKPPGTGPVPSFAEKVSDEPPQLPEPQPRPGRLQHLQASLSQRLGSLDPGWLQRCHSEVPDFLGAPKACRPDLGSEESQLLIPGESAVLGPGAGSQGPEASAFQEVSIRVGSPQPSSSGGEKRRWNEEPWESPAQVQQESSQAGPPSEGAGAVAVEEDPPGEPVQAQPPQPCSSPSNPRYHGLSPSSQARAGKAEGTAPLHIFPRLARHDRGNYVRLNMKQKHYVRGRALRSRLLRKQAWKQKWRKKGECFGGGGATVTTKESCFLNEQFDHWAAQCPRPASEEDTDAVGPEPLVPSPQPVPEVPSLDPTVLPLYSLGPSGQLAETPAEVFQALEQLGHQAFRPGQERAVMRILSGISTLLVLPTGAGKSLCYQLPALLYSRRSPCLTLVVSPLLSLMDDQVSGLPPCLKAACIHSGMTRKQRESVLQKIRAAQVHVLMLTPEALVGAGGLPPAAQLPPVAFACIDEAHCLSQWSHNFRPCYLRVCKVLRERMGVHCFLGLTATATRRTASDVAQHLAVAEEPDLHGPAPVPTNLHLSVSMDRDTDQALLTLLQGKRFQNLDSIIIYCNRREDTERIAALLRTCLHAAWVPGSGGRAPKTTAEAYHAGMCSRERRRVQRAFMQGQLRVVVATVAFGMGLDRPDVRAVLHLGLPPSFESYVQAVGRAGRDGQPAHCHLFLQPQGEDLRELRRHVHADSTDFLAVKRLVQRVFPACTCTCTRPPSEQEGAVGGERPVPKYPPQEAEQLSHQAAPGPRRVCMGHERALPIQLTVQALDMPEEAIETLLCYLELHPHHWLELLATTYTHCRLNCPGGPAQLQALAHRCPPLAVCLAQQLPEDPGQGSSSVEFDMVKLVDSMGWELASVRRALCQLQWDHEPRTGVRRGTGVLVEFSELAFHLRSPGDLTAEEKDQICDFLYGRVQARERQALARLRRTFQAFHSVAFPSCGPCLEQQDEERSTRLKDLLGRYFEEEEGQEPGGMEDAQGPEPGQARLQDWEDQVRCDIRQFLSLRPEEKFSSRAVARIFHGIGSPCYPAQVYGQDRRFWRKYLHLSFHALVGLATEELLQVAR
UniProt P62333, whole entry: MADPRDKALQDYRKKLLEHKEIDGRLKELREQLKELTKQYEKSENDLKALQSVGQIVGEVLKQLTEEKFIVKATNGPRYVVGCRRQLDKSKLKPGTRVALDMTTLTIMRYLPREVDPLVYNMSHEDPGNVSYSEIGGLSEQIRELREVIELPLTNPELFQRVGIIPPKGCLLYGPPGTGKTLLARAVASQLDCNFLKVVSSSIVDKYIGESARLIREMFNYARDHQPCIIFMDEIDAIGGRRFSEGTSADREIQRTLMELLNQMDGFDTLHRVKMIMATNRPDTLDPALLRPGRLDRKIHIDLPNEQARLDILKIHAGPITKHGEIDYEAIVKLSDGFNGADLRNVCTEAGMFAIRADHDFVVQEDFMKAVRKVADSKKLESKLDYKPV

Compound: Nc1ncnc2c1ncn2[C@@H]1O[C@H](COP(=O)(O)OP(=O)(O)OP(=O)(O)O)[C@@H](O)[C@H]1O [adenosine triphosphate]
Experiment: NP40-soluble protein abundance relative to vehicle (solubility fold change) (ratio); higher = more soluble protein in presence of ATP
Outline: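 Jurkat crude lysate (Dounce-homogenised) was treated with eight concentrations from 0.1 to 10 mM for 10 min at room temperature, then 3 min at 37 °C. It was solubilised with 0.8% NP40 and benzonase (60 min, 4 °C) and ultracentrifuged, and the supernatant was TMT-labelled for LC-MS/MS. Intensities were vsn-normalised, and the value is the fold change against the NP40-processed vehicle per replicate, from three independent experiments.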

Target	NP40-soluble protein abundance (concentration: 0.1mM)	NP40-soluble protein abundance (concentration: 0.5mM)
A0A087X1A8|D3VVH9 and related entries (UniProt P54252)	0.995 ± 0.019	0.994 ± 0.011
A0A087WV73|P46087 and related entries (UniProt P46087)	1.02 ± 0.005	1.1 ± 0.025
A0A087WYM3|Q8IXJ6 and related entries (UniProt Q8IXJ6)	0.953 ± 0.047	0.984 ± 0.053
A0A0C4DGH2|P62070 and related entries (UniProt P62070)	1.04 ± 0.035	1.01 ± 0.03
A0A087WV23|Q5T123 and related entries (UniProt Q9H299)	0.897 ± 0.059	0.854 ± 0.1
A0A087WX71|Q9H501 (UniProt Q9H501)	1.03 ± 0.034	1.08 ± 0.048
A0A0A0MRE5|Q9ULH1 and related entries (UniProt Q9ULH1)	0.994 ± 0.043	0.999 ± 0.091
A0A0C4DGB1|Q9UNQ2 (UniProt Q9UNQ2)	1.06 ± 0.078	1.13 ± 0.068
A0A087WYP2|Q8IZQ5 (UniProt Q8IZQ5)	0.995 ± 0.059	1.04 ± 0.023
A0A0C4DFU2|P04179 (UniProt P04179)	0.932 ± 0.058	0.944 ± 0.026
A0A0A0MTJ9|A0A0R4J2G3|Q6PIU2 and related entries (UniProt Q6PIU2)	1 ± 0.053	0.996 ± 0.045
A0A087WY55|Q9NP79 (UniProt Q9NP79)	0.909 ± 0.12	0.885 ± 0.16
A0A0C4DG17|C9J9K3 and related entries (UniProt P08865)	0.928 ± 0.11	0.905 ± 0.11
A0A087WZ30|A0A087X072|O94761 (UniProt O94761)	1.02 ± 0.078	0.929 ± 0.23
A0A087X2I1|P62333 (UniProt P62333)	0.995 ± 0.063	0.92 ± 0.022

Full records from above. Order of values: NP40-soluble protein abundance (concentration: 0.1mM)	NP40-soluble protein abundance (concentration: 0.5mM)
A0A0C4DGB1|Q9UNQ2 (UniProt Q9UNQ2) is listed with 1.06 ± 0.078	1.13 ± 0.068
A0A0C4DFU2|P04179 (UniProt P04179) is listed with 0.932 ± 0.058	0.944 ± 0.026
